Results are given in words; binding and its absence hold for the method and conditions named. Values belong to the binder of their own block, whether it stands above or below them.
What was measured:
[1] = target: T1, PgcA monoheme domain III (Geobacter sulfurreducens) (UniProt Q74CB3); assay: AUC; sedimentation velocity, each protein alone; 2 μM in 100 mM Tris-HCl, 100 mM NaCl, pH 8; 129,000 G, 20°C, monitored at 408 nm; c(S) analysis in Sedfit; both purified
T1 sequence (chain, one c-type heme at the CXXCH motif (axial ligands His459, His491)): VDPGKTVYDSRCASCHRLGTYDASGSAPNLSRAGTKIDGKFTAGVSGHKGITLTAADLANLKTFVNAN

[2] = target: T1, PgcA monoheme domain III (Geobacter sulfurreducens); assay: AUC; sedimentation velocity of a mixed sample containing all three monoheme domains; samples diluted to 2 μM in 100 mM Tris-HCl, 100 mM NaCl, pH 8; 129,000 G, 20°C, monitored at 408 nm; c(S) analysis in Sedfit; both purified
[3] = target: PgcA monoheme domain II (Geobacter sulfurreducens) (UniProt Q74CB3); assay: AUC; sedimentation velocity, each protein alone; 2 μM in 100 mM Tris-HCl, 100 mM NaCl, pH 8; 129,000 G, 20°C, monitored at 408 nm; c(S) analysis in Sedfit; both purified
[4] = target: triheme PgcA (residue 253-C terminus fragment of recombinant PgcA) (Geobacter sulfurreducens) (UniProt Q74CB3); assay: as above

- binding [1]: no binding (tested: 2 μM)
B1: PgcA monoheme domain III (domain or fragment, UniProt Q74CB3 444-511)
chain: VDPGKTVYDSRCASCHRLGTYDASGSAPNLSRAGTKIDGKFTAGVSGHKGITLTAADLANLKTFVNAN
modifications: one c-type heme at the CXXCH motif (axial ligands His459, His491)

- binding [2]: no binding (tested: 2 μM)
- binding [3]: no binding (tested: 2 μM)
B2: PgcA monoheme domain II (domain or fragment, UniProt Q74CB3 352-414)
chain: NGSALYGNNCQACHGSITNSDIQTRTVSAIQSAISGNRGGMGFLSTLTSAEIQAIATSLASAV
modifications: one c-type heme at the CXXCH motif (axial ligands His365, Met392)

- binding [4]: no binding (tested: 2 μM)
B3: triheme PgcA (residue 253-C terminus fragment of recombinant PgcA) (domain or fragment, UniProt Q74CB3 253-511)
chain: PTPPTPATDGQGLYAANCAACHGALATSEKKGTTLARLQSAVSANAGGMGFLSSLTSAQLQAIVDVLAVAPTPTPTPTPTPTPTPTPTPTPTPTPTPTPNGSALYGNNCQACHGSITNSDIQTRTVSAIQSAISGNRGGMGFLSTLTSAEIQAIATSLASAVTPTPTPTPTPTPTPTPTPTPTPTPTPTPTVDPGKTVYDSRCASCHRLGTYDASGSAPNLSRAGTKIDGKFTAGVSGHKGITLTAADLANLKTFVNAN
modifications: three c-type hemes (615.17 Da each) at the three CXXCH heme binding motifs

Reference: publication PMC11520253
